Measured values reported in US7452865B2 (The Administrare's of the Tulane Educational Fund, priority 2004, dated 2008).

Test: general procedure: Boc solid-phase peptide synthesis; MBHA resin (Bachem); Merrifield resin for -NHEt peptides; Boc-Agm-SPA-MBHA resin for Agm peptides; DIC; preformed HOBt esters for Boc-Asn-OH and Boc-Gln-OH
Details: whole synthesis, 220 and 280 nm, scale of the general procedure 0.50 mmol

Question: With “HOOC(CH2)12CO-Tyr^1D-Arg^2-Asp^3-Ala^4-Ile^5-Phe(pCl)^6-Thr^7-Asn^8-Arg^9-Tyr^10-Arg^11, Lys^12, Val^13-Leu^14-Abu^15-Gln^16-Leu^17-Ser^18-Ala^19-Arg^20-Lys^21-Leu^22-Leu^23-Gln^24-Asp^25-Ile^26-Nle^27-D-Arg^28-Har^29-NH2” as the substance, how does the “final HPLC purity” value read?
Answer: >95%

Question: Which “final HPLC purity” value does the source give for “[CH3(CH2)6CO-Tyr^1, D-Arg^2, Phe(pCl)^6, Ala^8, His^9, Tyr(Et)^10, His^11, Abu^15, Nle^27, D-Arg^28, Har^29]hGH-RH(1-29)NH2” here?
Answer: >95%

Question: Which “final HPLC purity” value does the source give for “[PhAc-Tyr^1, D-Arg^2, Phe(pCl)^6, Har^9, Tyr(Me)^10, His^11, Abu^15, Nle^27, D-Arg^28, Har^29]hGH-RH(1-29)NH2” here?
Answer: >95%

Same assay, conditions: whole synthesis, analytical HPLC, Supelco Discovery HS C18, 220 and 280 nm, scale of the general procedure 0.50 mmol

Question: Which “final HPLC purity” value does the source give for “PhAc-Tyr^1-D-Arg^2-Asp^3-Ala^4-Ile^5-Phe(pCl)^6-Thr^7-Asn^8-Har^9-Tyr(Me)^10-Arg^11-Lys^12-Val^13-Leu^14-Abu^15-Gln^16-Leu^17-Ser^18-Ala^19-Arg^20-Lys^21-Leu^22-Leu^23-Gln^24-Asp^25-Ile^26-Nle^27-D-Arg^28-Har^29-NHEt” here?
Answer: higher than 95%

Question: For “[CH3(CH2)6CO-Tyr^1, D-Arg^2, Phe(pCl)^6, Amp^9, Tyr(Me)^10, Abu^15, Nle^27, D-Arg^28, Har^29]hGH-RH(1-29)NH2”, which “final HPLC purity” value is on record?
Answer: >95%

Question: Which “final HPLC purity” value does the source give for “[HOOC(CH2)12CO-Tyr^1, D-Arg^2, Phe(pCl)^6, Amp^9, Tyr(Me)^10, Abu^15, Nle^27, D-Arg^28, Har^29]hGH-RH(1-29)NH2” here?
Answer: >95%

Question: For “[Hca-Tyr^1, D-Arg^2, Phe(pCl)^6, Har^9, Tyr(Me)^10, Abu^15, Nle^27, D-Arg^28, Har^29, Agm^30]hGH-RH(1-30)”, which “final HPLC purity” value is on record?
Answer: higher than 95%

Question: Which “final HPLC purity” value does the source give for “[PhAc-Tyr^1, D-Arg^2, Phe(pCl)^6, Amp^9, Tyr(Me)^10, Abu^15, Nle^27, D-Arg^28, Har^29]hGH-RH(1-29)NH2” here?
Answer: >95%
